## Percent effect of library compounds

Sequences of proteins named here, by UniProt entry; tags and fusion partners are left off. Residues count along the entry.
UniProt Q8IDJ8, 1-583: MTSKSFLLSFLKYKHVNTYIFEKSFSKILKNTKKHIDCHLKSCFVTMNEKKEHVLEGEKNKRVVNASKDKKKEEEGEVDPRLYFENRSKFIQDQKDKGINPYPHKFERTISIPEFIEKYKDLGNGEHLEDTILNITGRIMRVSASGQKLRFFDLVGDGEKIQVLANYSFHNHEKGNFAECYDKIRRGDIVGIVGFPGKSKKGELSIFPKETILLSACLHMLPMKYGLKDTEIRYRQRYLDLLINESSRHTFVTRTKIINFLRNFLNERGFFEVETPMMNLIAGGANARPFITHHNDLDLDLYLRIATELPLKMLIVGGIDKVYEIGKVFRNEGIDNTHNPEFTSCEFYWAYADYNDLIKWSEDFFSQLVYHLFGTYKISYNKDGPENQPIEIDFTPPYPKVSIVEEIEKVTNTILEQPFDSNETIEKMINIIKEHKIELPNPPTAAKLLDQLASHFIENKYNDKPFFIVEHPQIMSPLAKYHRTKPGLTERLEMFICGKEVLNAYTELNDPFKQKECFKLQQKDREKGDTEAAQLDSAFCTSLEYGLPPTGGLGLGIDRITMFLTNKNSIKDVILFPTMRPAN
UniProt I6X8D2, whole entry: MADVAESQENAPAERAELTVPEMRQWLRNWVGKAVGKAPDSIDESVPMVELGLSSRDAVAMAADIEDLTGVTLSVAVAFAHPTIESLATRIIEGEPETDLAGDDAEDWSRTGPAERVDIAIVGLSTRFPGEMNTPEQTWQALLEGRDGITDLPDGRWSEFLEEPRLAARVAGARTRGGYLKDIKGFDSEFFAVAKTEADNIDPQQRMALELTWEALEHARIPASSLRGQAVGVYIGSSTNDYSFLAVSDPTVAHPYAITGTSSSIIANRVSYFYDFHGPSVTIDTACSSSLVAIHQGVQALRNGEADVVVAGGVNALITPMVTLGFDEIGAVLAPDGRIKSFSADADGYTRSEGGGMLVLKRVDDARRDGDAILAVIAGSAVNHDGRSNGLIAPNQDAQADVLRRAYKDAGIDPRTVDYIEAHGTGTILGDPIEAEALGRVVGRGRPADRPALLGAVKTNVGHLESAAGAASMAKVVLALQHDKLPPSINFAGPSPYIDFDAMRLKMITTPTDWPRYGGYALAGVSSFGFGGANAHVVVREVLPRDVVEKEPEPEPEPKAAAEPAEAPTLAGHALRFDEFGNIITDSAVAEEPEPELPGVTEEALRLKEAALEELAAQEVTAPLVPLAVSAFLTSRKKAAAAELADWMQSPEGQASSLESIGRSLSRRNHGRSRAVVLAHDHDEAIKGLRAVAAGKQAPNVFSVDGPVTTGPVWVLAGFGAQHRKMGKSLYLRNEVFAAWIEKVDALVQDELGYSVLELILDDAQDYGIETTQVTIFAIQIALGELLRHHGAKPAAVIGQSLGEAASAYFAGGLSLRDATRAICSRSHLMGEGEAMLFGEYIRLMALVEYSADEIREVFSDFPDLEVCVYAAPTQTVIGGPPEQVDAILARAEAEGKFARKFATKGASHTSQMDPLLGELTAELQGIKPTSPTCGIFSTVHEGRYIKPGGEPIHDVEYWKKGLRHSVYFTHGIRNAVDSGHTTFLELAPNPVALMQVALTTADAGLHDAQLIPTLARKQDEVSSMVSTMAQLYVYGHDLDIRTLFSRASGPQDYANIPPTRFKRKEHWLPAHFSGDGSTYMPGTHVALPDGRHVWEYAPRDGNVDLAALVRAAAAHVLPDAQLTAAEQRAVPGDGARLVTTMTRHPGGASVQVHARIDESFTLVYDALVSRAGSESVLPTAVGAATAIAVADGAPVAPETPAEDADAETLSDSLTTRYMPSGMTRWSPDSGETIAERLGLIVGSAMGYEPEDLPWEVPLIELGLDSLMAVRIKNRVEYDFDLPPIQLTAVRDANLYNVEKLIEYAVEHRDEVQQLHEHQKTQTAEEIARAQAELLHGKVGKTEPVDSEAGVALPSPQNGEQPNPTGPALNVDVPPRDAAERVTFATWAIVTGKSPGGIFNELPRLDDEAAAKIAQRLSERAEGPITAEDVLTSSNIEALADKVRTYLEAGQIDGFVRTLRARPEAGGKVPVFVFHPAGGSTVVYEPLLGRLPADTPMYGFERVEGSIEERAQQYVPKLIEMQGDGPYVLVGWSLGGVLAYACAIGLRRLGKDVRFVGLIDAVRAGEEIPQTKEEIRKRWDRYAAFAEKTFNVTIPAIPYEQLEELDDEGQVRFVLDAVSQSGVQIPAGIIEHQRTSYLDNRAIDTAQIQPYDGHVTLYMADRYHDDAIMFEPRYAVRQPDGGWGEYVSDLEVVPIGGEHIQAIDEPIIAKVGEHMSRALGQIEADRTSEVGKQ
UniProt P9WNZ1, whole entry: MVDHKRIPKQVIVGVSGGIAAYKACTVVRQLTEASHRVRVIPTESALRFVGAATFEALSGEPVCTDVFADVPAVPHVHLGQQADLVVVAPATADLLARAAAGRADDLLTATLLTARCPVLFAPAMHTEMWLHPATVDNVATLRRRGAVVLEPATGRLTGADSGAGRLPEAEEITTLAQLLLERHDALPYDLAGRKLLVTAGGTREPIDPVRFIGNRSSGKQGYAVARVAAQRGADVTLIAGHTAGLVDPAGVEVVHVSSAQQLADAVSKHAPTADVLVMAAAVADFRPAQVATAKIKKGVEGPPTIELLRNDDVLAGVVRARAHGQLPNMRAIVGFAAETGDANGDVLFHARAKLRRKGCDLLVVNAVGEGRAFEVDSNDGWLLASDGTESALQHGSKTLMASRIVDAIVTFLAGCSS
UniProt Q4DA54, 1-478: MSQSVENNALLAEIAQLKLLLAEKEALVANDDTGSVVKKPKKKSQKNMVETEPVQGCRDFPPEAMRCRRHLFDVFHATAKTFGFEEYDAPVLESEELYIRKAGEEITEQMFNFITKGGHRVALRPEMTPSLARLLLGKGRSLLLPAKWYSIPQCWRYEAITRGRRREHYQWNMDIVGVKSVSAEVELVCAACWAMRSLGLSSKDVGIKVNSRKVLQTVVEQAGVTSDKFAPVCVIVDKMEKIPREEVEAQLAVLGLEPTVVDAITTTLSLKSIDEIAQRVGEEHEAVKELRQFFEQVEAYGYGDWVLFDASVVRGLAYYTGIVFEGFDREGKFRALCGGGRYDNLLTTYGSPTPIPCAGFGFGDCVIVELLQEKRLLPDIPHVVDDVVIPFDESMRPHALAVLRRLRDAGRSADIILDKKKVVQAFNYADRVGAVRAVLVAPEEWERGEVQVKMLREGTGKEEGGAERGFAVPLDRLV
UniProt P9WFT3, whole entry: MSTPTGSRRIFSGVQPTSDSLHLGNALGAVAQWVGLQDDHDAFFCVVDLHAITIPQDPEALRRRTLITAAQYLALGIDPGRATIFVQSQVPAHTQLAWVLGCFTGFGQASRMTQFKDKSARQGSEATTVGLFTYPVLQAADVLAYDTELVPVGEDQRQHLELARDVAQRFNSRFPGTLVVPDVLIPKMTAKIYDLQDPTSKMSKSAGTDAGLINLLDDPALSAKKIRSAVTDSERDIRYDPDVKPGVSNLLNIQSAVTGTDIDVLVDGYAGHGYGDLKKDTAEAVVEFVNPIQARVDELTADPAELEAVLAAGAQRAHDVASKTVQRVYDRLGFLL
UniProt P9WPC5, whole entry: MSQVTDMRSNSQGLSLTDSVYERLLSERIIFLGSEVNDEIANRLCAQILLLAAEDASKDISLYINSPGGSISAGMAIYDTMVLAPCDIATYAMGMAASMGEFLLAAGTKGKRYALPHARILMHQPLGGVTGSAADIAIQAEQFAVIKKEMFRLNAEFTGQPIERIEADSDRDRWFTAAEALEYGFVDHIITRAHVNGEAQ
UniProt P9WPC3, whole entry partner: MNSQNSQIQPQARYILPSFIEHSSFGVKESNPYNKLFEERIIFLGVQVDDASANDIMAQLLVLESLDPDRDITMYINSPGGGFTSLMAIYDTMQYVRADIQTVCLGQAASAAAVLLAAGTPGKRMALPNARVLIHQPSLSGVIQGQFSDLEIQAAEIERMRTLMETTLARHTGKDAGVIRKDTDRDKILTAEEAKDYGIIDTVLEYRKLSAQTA

Values are the deposited “Percent Effect”, in %. The record does not define 0% and 100%; most values in the screen are far below 50% and negative numbers occur (in some assays of this library far below -100). Compounds were drawn at random from those tested, without regard to their results.

PfKRS1: 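Enzyme assay of the cytosolic lysyl-tRNA synthetase in 384-well plates, read by luminescence. Target: Lysine-tRNA ligase, Plasmodium falciparum 3D7 (UniProt Q8IDJ8). Compounds at 30 µM. Higher reads as stronger inhibition, judged from the few compounds that gave an IC50. Of about 69,000 compounds tested this way, about 49 (0.071%) reached 50% or more in at least one test.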
Pks13 thioesterase: 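Polyketide synthase Pks13, Mycobacterium tuberculosis (UniProt I6X8D2). Enzyme assay of the thioesterase domain of polyketide synthase 13; the read-out is not stated. Compounds at 30 µM. The record gives no direction; the compounds picked for IC50 retests had high values, so higher reads as stronger inhibition. About 67,000 compounds were tested under these conditions; 0.46% (about 300) showed 50% or more at least once.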
CoaBC: 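Enzyme assay of CoaBC with a phosphate dye (Biomol Green) read at 650 nm. Target: Coenzyme A biosynthesis protein CoaBC, Mycobacterium tuberculosis (UniProt P9WNZ1). Tested at 30 µM. Direction is inferred from only a few compounds that gave an IC50; most scored high, so higher reads as stronger inhibition. Most strong results did not repeat in a second test. Size under these conditions: about 67,000 compounds, about 40 of them at 50% or above in at least one test.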
TcHisRS: 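Histidine-tRNA ligase, Trypanosoma cruzi CL Brener (UniProt Q4DA54). Enzyme assay of histidyl-tRNA synthetase; the read-out is not stated. Compounds at 30 µM. Higher reads as stronger inhibition (inferred: compounds with an IC50 in retests scored well above the rest). About 69,000 compounds were tested under these conditions; 0.045% (about 31) showed 50% or more at least once.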
MtTrpRS: 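Tryptophan-tRNA ligase, Mycobacterium tuberculosis (UniProt P9WFT3). Enzyme assay of tryptophanyl-tRNA synthetase; the read-out is not stated. Tested at 10 µM. Higher most likely means stronger inhibition; the record gives no direction and few retests gave an IC50. Size under these conditions: about 65,000 compounds, about 64 of them at 50% or above in at least one test.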
ClpP1P2: 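Protease assay of ClpP1P2, read by the AMC dye that it sets free. Target: ClpP1P2, Mycobacterium tuberculosis (UniProt P9WPC5 and UniProt P9WPC3). Tested at 50 µM. Higher reads as stronger inhibition, judged from the few compounds that gave an IC50. Most other retested compounds had strongly negative values. About 69,000 compounds were tested under these conditions; 0.015% (about 10) showed 50% or more at least once.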

{"smiles": "N#Cc1cn[nH]c1NCc1cc(I)cc(I)c1O", "PfKRS1": 0.6723, "Pks13 thioesterase": -29.6, "CoaBC": 0.2427, "TcHisRS": -6.931, "MtTrpRS": 3.888, "ClpP1P2": -2.731}
{"smiles": "CCc1ccc(C2CCCCCN2C(=O)CNC(=O)NC2CC2)o1", "stereo": "centres unmarked", "PfKRS1": 5.494, "Pks13 thioesterase": -23.32, "CoaBC": -4.994, "TcHisRS": 11.31, "MtTrpRS": 1.288, "ClpP1P2": -3.847}
{"smiles": "CC1(C)CN(C(=O)CCc2nc(-c3ccncc3)no2)CCO1", "PfKRS1": 7.717, "Pks13 thioesterase": 1.415, "CoaBC": 7.937, "TcHisRS": 1.724, "MtTrpRS": -9.276, "ClpP1P2": 7.242}
{"smiles": "Cc1nn(C)cc1-c1ccnc(N(C)Cc2ccc(F)cc2)n1", "PfKRS1": 0.6859, "Pks13 thioesterase": -13.24, "CoaBC": 7.995, "TcHisRS": 14.94, "MtTrpRS": -1.774, "ClpP1P2": 9.373}
{"smiles": "O=C(C1CCCC1)N1CCCC1c1nnc2n1CCCCC2", "stereo": "centres unmarked", "PfKRS1": 8.593, "Pks13 thioesterase": -12.93, "CoaBC": -3.807, "TcHisRS": 5.83, "MtTrpRS": -4.196, "ClpP1P2": 1.3}
{"smiles": "O=C(Nc1cnccn1)[C@@H]1CC[C@@H]2[C@@H](CCN2Cc2nccs2)O1", "PfKRS1": 3.362, "Pks13 thioesterase": 2.26, "CoaBC": -6.947, "TcHisRS": 6.03, "MtTrpRS": 1.472, "ClpP1P2": -0.5925}
{"smiles": "CSCC(=O)N1CCCC(CCC(=O)N(C)CCc2ccccn2)C1", "stereo": "centres unmarked", "PfKRS1": 3.756, "Pks13 thioesterase": -9.763, "CoaBC": 1.062, "TcHisRS": 0.8, "MtTrpRS": -2.596, "ClpP1P2": 4.525}
{"smiles": "COC(=O)C1CCN(C(=O)c2ccc(NS(C)(=O)=O)c(C)c2)CC1", "PfKRS1": -0.273, "Pks13 thioesterase": 2.717, "CoaBC": -3.509, "TcHisRS": 5.785, "MtTrpRS": -1.921, "ClpP1P2": -18.27}
{"smiles": "CCC(C(=O)N1CCN(S(=O)(=O)N2CCCC2)CC1)n1cccn1", "stereo": "centres unmarked", "PfKRS1": 7.473, "Pks13 thioesterase": -15.69, "CoaBC": 2.096, "TcHisRS": 0.8772, "MtTrpRS": -1.051, "ClpP1P2": -13.54}
{"smiles": "CCc1nnc(S(=O)(=O)Cc2cc(Cl)c3c(c2)OCO3)n1C", "PfKRS1": 2.719, "Pks13 thioesterase": -47.59, "CoaBC": -6.452, "TcHisRS": 6.145, "MtTrpRS": -4.054, "ClpP1P2": -4.783}
{"smiles": "CC(=O)N1CCC2(CC1)NC(=O)[C@H]1CN(Cc3cccnc3)C[C@H]12", "PfKRS1": 2.478, "CoaBC": -3.562, "TcHisRS": 7.767, "MtTrpRS": -3.638, "ClpP1P2": -1.41}
{"smiles": "CSc1ccc(NC(=O)Cc2cccc(O)c2)nc1", "PfKRS1": 4.166, "Pks13 thioesterase": -7.033, "CoaBC": -0.2439, "TcHisRS": 2.941, "MtTrpRS": 2.859, "ClpP1P2": -14.72}
{"smiles": "CC(C)(C)n1ncc2c1NC(=O)CC2c1cccc(O)c1", "stereo": "centres unmarked", "PfKRS1": 6.274, "Pks13 thioesterase": -9.987, "CoaBC": -2.299, "TcHisRS": 2.424, "MtTrpRS": -1.978, "ClpP1P2": -3.205}
{"smiles": "CC(C)c1cc2c(O)nc(CSCC(=O)NCc3ccncc3)nc2s1", "PfKRS1": 0.883, "Pks13 thioesterase": -32.64, "CoaBC": 6.21, "TcHisRS": 2.273, "MtTrpRS": -5.348, "ClpP1P2": 9.658}
{"smiles": "Cc1ccc(-c2ccc(Cl)nn2)cc1S(N)(=O)=O", "PfKRS1": 2.3, "Pks13 thioesterase": -29.52, "CoaBC": 1.942, "TcHisRS": 1.657, "MtTrpRS": -0.4706, "ClpP1P2": -10.84}
{"smiles": "COC(=O)CC(c1ccccc1)c1oc(C)cc(=O)c1O", "stereo": "centres unmarked", "PfKRS1": -0.273, "Pks13 thioesterase": -3.778, "CoaBC": -7.456, "TcHisRS": 5.785, "MtTrpRS": -3.091, "ClpP1P2": -6.564}
{"smiles": "Cc1ccc(C(=O)N2CC[C@@H]3[C@H]2CCC(=O)N3c2ccccc2)o1", "PfKRS1": 2.276, "Pks13 thioesterase": -32.5, "CoaBC": 6.736, "TcHisRS": 2.732, "MtTrpRS": 3.172, "ClpP1P2": 5.273}
{"smiles": "O=S(=O)(c1ccccc1)N1CCC[C@]2(C[C@H](OCC3CC3)CO2)C1", "PfKRS1": 0.6919, "Pks13 thioesterase": -6.579, "CoaBC": -0.2028, "TcHisRS": 0.8403, "MtTrpRS": -6.188, "ClpP1P2": 2.678}
{"smiles": "Cc1nc(CN2CCC(c3nc4ccccc4n3C)CC2)co1", "PfKRS1": 8.376, "Pks13 thioesterase": -6.851, "CoaBC": 2.799, "TcHisRS": -10.84, "MtTrpRS": 0.4575, "ClpP1P2": -3.73}
{"smiles": "Cc1nnc2ccc(N3CCN(Cc4nccn4C)CC3)nn12", "PfKRS1": 4.211, "Pks13 thioesterase": 12.26, "CoaBC": 9.615, "TcHisRS": 0, "MtTrpRS": 5.379, "ClpP1P2": 2.338}

Once more, the final 2:

For Cc1nc(CN2CCC(c3nc4ccccc4n3C)CC2)co1 the result was PfKRS1: 8.376%; Pks13 thioesterase: -6.851%; CoaBC: 2.799%; TcHisRS: -10.84%; MtTrpRS: 0.4575%; ClpP1P2: -3.73%.
For Cc1nnc2ccc(N3CCN(Cc4nccn4C)CC3)nn12 the result was PfKRS1: 4.211%; Pks13 thioesterase: 12.26%; CoaBC: 9.615%; TcHisRS: 0%; MtTrpRS: 5.379%; ClpP1P2: 2.338%.

From ChEMBL document CHEMBL3988442, “University of Dundee, Small-Polar-MMV Screening Library” (2021).